Measurements published in PMC4516353.
Changes are numbered by the printed parent chain. Results are given in words; binding and its absence hold for the method and conditions named. Binding seen in cells or lysates may run through a third protein. Binding calls can cover weak binding; strength is not graded here. Sequences can lack the tags named with a protein.

What was measured:
Experiment in all cases: co-IP; COS-7 cells electroporated with 200 ng of pQM plasmids, collected 24 h later; immunoprecipitation with anti-E2Tag antibody 5E11; immunoblot for E2Tag or WBSCR22 and TRMT112
[1] = biological target: T1, E2Tag-WBSCR22-MTD (human) (UniProt O43709)
T1 sequence: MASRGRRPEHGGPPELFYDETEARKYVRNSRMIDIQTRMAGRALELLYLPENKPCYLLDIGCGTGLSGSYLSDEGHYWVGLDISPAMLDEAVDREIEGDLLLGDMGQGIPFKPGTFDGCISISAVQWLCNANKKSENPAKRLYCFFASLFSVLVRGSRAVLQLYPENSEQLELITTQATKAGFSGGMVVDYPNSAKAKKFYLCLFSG

[2] = biological target: T2, E2Tag-WBSCR22-D117A (human) (UniProt O43709)
T2 sequence: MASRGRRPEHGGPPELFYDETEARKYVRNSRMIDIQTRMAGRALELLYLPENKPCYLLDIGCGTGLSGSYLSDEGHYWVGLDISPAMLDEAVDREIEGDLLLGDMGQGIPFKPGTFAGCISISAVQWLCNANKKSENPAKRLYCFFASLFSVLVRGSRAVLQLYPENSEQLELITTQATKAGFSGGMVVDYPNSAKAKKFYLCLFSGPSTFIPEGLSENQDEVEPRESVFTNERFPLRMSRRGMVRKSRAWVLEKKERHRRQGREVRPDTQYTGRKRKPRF

[3] = biological target: T3, E2Tag-WBSCR22-KT/AA (human) (UniProt O43709)
T3 sequence: T2 sequence with K112A, T115A, A117D

[4] = biological target: T4, E2Tag-WBSCR22 (transiently expressed in COS-7 cells) (human) (UniProt O43709)
T4 sequence: T2 sequence with A117D

Measured: binding

TRMT112 (endogenous, COS-7 cells)
binds: all assays above
